{"source": "paper PMC8224859", "biological_target": "BD-Mer1_(23-341) (U. maydis)", "experiment": "two-hybrid; directed spotting assay: bait in pGBKT7 (strain AH109), prey in pADGG (strain Y187); growth of diploids on intermediate (-L, -W, -H) or high stringency (-L, -W, -H, -A) media 4 days post-inoculation", "note": "Results are given in words; binding and its absence hold for the method and conditions named. Binding can be weak; no strength is given.", "data": [{"molecule": "AtRFI2B (from UniProt F4J8E5) (enzyme)", "values": [{"measurement": "binding", "result": "binds"}]}, {"molecule": "AtRFI2A (enzyme, UniProt O82239 1-358) MAGAKDSGCDDDLRIAGGCDPGKRGNPEDSSSPVEVSCSICLESVLDDGTRSKAKLQCGHQFHLDCIGSAFNMKGAMQCPNCRNVEKGQWLYANGSTRPFPEFSMEDWIPEEDLYGLSYPEMQYRVHWCPFGELSQAAASFEELEPATTTYHTEFHGHHAAAVNHSYLAYVGPGPAATPRTSDNNSTDDHPWNSHSNDHFHQLPVAPQYHHHSPSFSLPAAHVVDGEVDSSAARGLPYAHPFLFSHRSNQRSSPAINSYQGSSTQMREQHHAYNHQRQQHHANGPTLASPLISMTRRGLPPPPPPPPMPDQNVGFFIYPGGHHEPETDQIHAWERDWFPHFPVPSNHRTIPSLWHRHF", "values": [{"measurement": "binding", "result": "binds"}]}]}
